Results are given in words; binding and its absence hold for the method and conditions named. For some assays here: In cells and extracts the contact can be indirect. For some assays here: A result given as binding can be weak or reduced; the word gives no strength. For some assays here: Where a sequence is shown, tags or fusion partners need not be part of it.
What was measured:
ΔLRR NOD2 [1] = test: co-IP of Flag-NOD2 variants with GFP-IRGM
AMPK [2] = test: co-immunoprecipitation, HEK293T cells expressing GFP-IRGM
ΔCARD NOD2 = test: Flag pull-down, affinity purified Flag-NOD2 variants and purified GST-IRGM
ΔLRR NOD2 [3] = test: as above
AMPK [4] = test: co-IP of GFP-TRIM20 complexes, HEK293T cells

B1: IRGM (human IRGM, isoform d) (protein, UniProt A1A4Y4-4 1-202, looked up)
chain: MEAMNVEKASADGNLPEVISNIKETLKIVSRTPVNITMAGDSGNGMSTFISALRNTGHEGKASPPTELVKATQRCASYFSSHFSNVVLWDLPGTGSATTTLENYLMEMQFNRYDFIMVASAQFSMNHVMLAKTAEDMGKKFYIVWTKLDMDLSTGALPEVQLLQIRENVLENLQKERLACHEKYLKSTPENSTRPRNINLCS
- binding (ΔLRR NOD2 [1]): binds
- binding (AMPK [2]): no binding

B2: purified recombinant GST-IRGM (GST-IRGMd), prepared from insect cells (protein, human, UniProt A1A4Y4-4 1-202, looked up, not shown: a dimerising Fc or GST)
chain: B1 chain
- binding (ΔCARD NOD2): no binding
- binding (ΔLRR NOD2 [3]): binds

B3: GFP-TRIM20 (full-length human TRIM20) (protein, not shown: large carriers)
chain: MAKTPSDHLLSTLEELVPYDFEKFKFKLQNTSVQKEHSRIPRSQIQRARPVKMATLLVTYYGEEYAVQLTLQVLRAINQRLLAEELHRAAIQEYSTQENGTDDSAASSSLGENKPRSLKTPDHPEGNEGNGPRPYGGGAASLRCSQPEAGRGLSRKPLSKRREKASEGLDAQGKPRTRSPALPGGRSPGPCRALEGGQAEVRLRRNASSAGRLQGLAGGAPGQKECRPFEVYLPSGKMRPRSLEVTISTGEKAPANPEILLTLEEKTAANLDSATEPRARPTPDGGASADLKEGPGNPEHSVTGRPPDTAASPRCHAQEGDPVDGTCVRDSCSFPEAVSGHPQASGSRSPGCPRCQDSHERKSPGSLSPQPLPQCKRHLKQVQLLFCEDHDEPICLICSLSQEHQGHRVRPIEEVALEHKKKIQKQLEHLKKLRKSGEEQRSYGEEKAVSFLKQTEALKQRVQRKLEQVYYFLEQQEHFFVASLEDVGQMVGQIRKAYDTRVSQDIALLDALIGELEAKECQSEWELLQDIGDILHRAKTVPVPEKWTTPQEIKQKIQLLHQKSEFVEKSTKYFSETLRSEMEMFNVPELIGAQAHAVNVILDAETAYPNLIFSDDLKSVRLGNKWERLPDGPQRFDSCIIVLGSPSFLSGRRYWEVEVGDKTAWILGACKTSISRKGNMTLSPENGYWVVIMMKENEYQASSVPPTRLLIKEPPKRVGIFVDYRVGSISFYNVTARSHIYTFASCSFSGPLQPIFSPGTRDGGKNTAPLTICPVGGQGPD
- binding (AMPK [4]): binds
